Screen size: about 210,000 compounds; about 5,900 (2.8%) were called active. About 5% were inconclusive and are not listed. Calls come from the whole dose curve; as a rule, active = well fitted activation curve with a large enough effect; inconclusive = small, poorly fitted or top-dose-only effect; inactive = no such curve, though single readings can be large or run the other way. The list shows a part of the results, in another mix than the full data. Where no call is shown, the source filed none.
test: qHTS Assay for Enhancers of SMN2 Splice Variant Expression; conditions: HEK293 SMN2-luciferase splicing reporter, luminescence, 30-36 h; activity change, positive = activation: at 46.1 µM (top of the series) unless noted; note: nearly all actives have a fitted effect of over 55% in size; for activity change, positive = activation: % of control where 0% means no effect
Text: NIH Chemical Genomics Center [NCGC] NIH Molecular Libraries Probe Production centers Network [MLPCN] MLPCN Grant: R03 MH084179-01 Assay Submitter (PI): Elliot Androphy NCGC Assay Overview: Spinal muscular atrophy (SMA) is caused by insufficient levels of the survival motor neuron protein SMN. The SMN locus on chromosome 5q13 contains two inverted copies of SMN called SMN1 and SMN2 which are 99% identical at the amino acid level. SMN1 is a fully functional protein and SMN2 skips exon 7 90% of the time. Skipping of exon 7 produces non-functional protein product. 10% of the SMN2 protein includes exon 7 and is fully functional. In the SMA disease state, mutations in the SMN1 locus are the cause of the disease state. Because only 10% of SMN2 is of the fully functional form, it is not sufficient to overcome the deficiency produced by the loss of the SMN1 product. A therapy that either increase the amount of SMN2 product made or to increase the inclusion of exon 7 has been proposed for the treatment of SMA. We have designed an assay to identify small molecules that can increase the amount of functional SMN2 product by appending a luciferase reporter gene after the native SMN2 gene, such that inclusion of exon 7 in the expressed product places the luciferase sequence in frame, thus generating functional luciferase enzyme.
NCGC Assay Protocol Summary: This screen utilizes a luciferase reporter gene assay, combining the promoter and splicing based cassettes in tandem with the major portion of the native SMN2 cDNA, and then transfected into HEK293 cells. Compounds that increase luciferase signal presumably enhance expression of the functional SMN2 splice variant. Passaging media contained DMEM w/ glutamax (+phenol red) 10% FCS, 1x pen/strep, 200 ug/ml hygro, 1x sodium pyruvate. Assay media contained DMEM w/ glutamax (-phenol red) 10% FCS, 1x pen strep, 1x pyruvate Sequence, Parameter, Value, Description (1) Cells, […], 2000 cells/well, 1536 TC treated White solid bottom plate (2) Time, 10-12 hours, 37C 5% CO2 (3) Compound, 23 nl, MLSMR Library (4) Control Compound, 23 nL, Sodium butyrate st 4.5mM (final) conc (5) Time, 30-36 hours, 37C 5% CO2 (6) Reagent, 3 ul, One Glo (TM) from Promega (7) Time, 5-15 minutes, Room temp (8) Detector, Viewlux: luminescent read, 60 second integration, high speed 2x binning Keywords: Spinal muscular atrophy, SMA, SMN2, high throughput screening, MLSMR, MLPCN, NIH Roadmap, qHTS and NCGC
Potency is the fitted concentration of half-maximal effect.

Row | SMILES | activity change, positive = activation | Potency
1 | COc1ccc2cc3c(N)nn(C(=O)c4ccc(F)cc4Cl)c3nc2c1 | inactive: -44.3% | 
2 | CCOC(=O)C1CCN(C(=O)c2ccc3c(SCC(=O)O)c4c(nc3c2)CCCC4)CC1 | -21.5% | 
3 | CN(C)S(=O)(=O)N(CC(=O)NCc1ccccc1)c1ccccc1 | 26.3% | 
4 | Cc1csc(NC(=O)C2CCN(S(=O)(=O)c3ccccc3F)CC2)n1 | inactive: -49% | 
5 | CCC/C(=N\NC(=O)c1csc(C)c1C)c1cccs1 |  | active: 15.8 µM
6 | O=C(NCC1CCCO1)c1cc(-c2ccccc2)on1 (configuration not stated) |  | active: 35.5 µM
7 | CC(C)NS(=O)(=O)c1ccc(NC(=O)CCc2ccccc2)cc1 | 30.5% | 
8 | CCOC(=O)NC(Nc1ccc(S(N)(=O)=O)cc1)(C(=O)OCC)C(F)(F)F (configuration not stated) | 49.5% | 
9 | COC(=O)c1cc(COc2ccc3ccc(=O)oc3c2)c(C)o1 | 37.1% | 
10 | Cc1ccccc1N=Nc1ccc(O)c2ncccc12 | inactive: -103% | 
11 | O=C(Nc1ccc(NC(=O)C2CCCCC2)nc1)c1ccccn1 |  | active: 22.4 µM
12 | CC(=O)C1=C(O)C(=O)N(CCCCCC(=O)O)C1c1ccc(N(C)C)cc1 (configuration not stated) | 20.9% | 
13 | CCCCN(C)CC(O)Cn1cc(/C=C/C(=O)c2ccc(OCC)cc2)c2ccccc21 (configuration not stated) | inactive: -82.5% | 
14 | CCOC(=O)n1c(=O)n(Cc2ccc(Cl)cc2Cl)c2ccccc21 | inactive: -33.3% | 
15 | O=C(N/N=C/c1ccc(Cl)cc1)C1CC12CCC2 (configuration not stated) | 50.4% | 
16 | C#CCSc1nnc(-c2ccccc2)c(=O)[nH]1 | 37.3% | 
17 | CCC(=O)NS(=O)(=O)c1cccnc1Nc1ccccc1Cl | 30.4% | 
18 | CC(NC(=O)CC(O)(C(F)(F)F)C(F)(F)F)c1ccccc1 (configuration not stated) | 23% | 
19 | CCc1cc[n+](C2=C([O-])c3ccccc3C(=O)/C2=N\S(=O)(=O)c2cccs2)cc1 | -106% | 
20 | Cc1cccc(-c2cc(N)n(-c3ccccc3)n2)c1 |  | active: 11.2 µM
21 | Cc1nc2sc(-c3ccccc3)cc2c(=O)[nH]1 |  | active: 12.6 µM
22 | CCOc1ccc(NC(=O)CSc2oc(-c3ccccc3)nc2S(=O)(=O)c2ccc(Cl)cc2)cc1 | 34.8% | 
23 | Cc1cc(C(F)F)n2nc(C(=O)NCc3ccccc3F)nc2n1 | 30.9% | 

Row | SMILES | activity change, positive = activation | Potency
24 | CCCOc1ncnc2c1[nH]c1ccccc12 | inactive: -60.3% | 
25 | CN(C)CCNC(=S)Nc1ccc(-c2nc3ccccc3[nH]2)cc1 |  | active: 11.2 µM
26 | COc1cccc([C@@H]2Oc3ccc(OC)cc3C(=O)[C@H]2OC(=O)NCc2ccc3c(c2)OCO3)c1 | inactive: 13.2% | 
27 | CC(=O)c1ccc(NC(=O)CSCC(=O)Nc2ccc3ccccc3c2)cc1 | 41.7% | 
28 | O=C(CC12CC3CC(CC(C3)C1)C2)NCC(=O)N1CCCC1 | 26.3% | 
29 | COCCCN=Cc1c(C)[nH]n(-c2ccc(Br)c(C)c2)c1=O |  | active: 2.82 µM
30 | Cn1c(CO)cnc1SCc1ccccc1 | 19.8% | 
31 | Cc1cc(C)cc(NC(=O)c2cc(=O)c3ccccc3o2)c1 | -29.7% | 
32 | CC1CC(C)CN(CCCNC(=O)Cn2ncn3cccc3c2=O)C1 (configuration not stated) | 74.1% | 
33 | CCOC(=S)SCC(=O)N1CCc2cc(OC)c(OC)cc2C1C1C(=O)CC(C)(C)CC1=O (configuration not stated) | 20.5% | 
34 | CCOC(=O)C1CCN(C(=O)Cc2cccs2)CC1 | 26.6% | 
35 | Cc1ccccc1-c1cc(-c2ccccc2O)on1 |  | active: 7.08 µM
36 | C=CCNC(=O)c1ccccc1NC(=O)c1ccc(Cl)c(S(=O)(=O)Nc2ccccc2)c1 | -63.4% | 
37 | Cc1nccn1CC(O)COC1CCCCC1 (configuration not stated) | 24.3% | 
38 | Cn1nc(CC(=O)NCc2ccc(C(F)(F)F)cc2)c2ccccc2c1=O | -87.7% | 
39 | CCOC(=O)N1CCN(C(=O)C2CCN(c3ncnc4c3sc3cccc(F)c34)CC2)CC1 | -74.7% | 
40 | O=C(c1ccc2nc(N3CCCCC3)sc2c1)N1CCN(Cc2ccc3c(c2)OCO3)CC1 | inactive: -63.5% | 
41 | OCCSc1nc(N2CCOCC2)nc(N2CCOCC2)n1 | -46.1% | 
42 | CCOc1cc(C(=O)OCC(=O)c2cc(C)n(CC3CCCO3)c2C)ccc1OCC(=O)N1CCOCC1 (configuration not stated) | 37.4% | 
43 | COc1ccc(-c2nc(N)n(C(=O)c3ccccc3Cl)n2)cc1 | inactive: 18.6% | 
44 | Cc1ccc(NC(=O)c2nc(S(=O)(=O)Cc3ccc(F)cc3)ncc2Cl)cc1C | -79.4% | 
45 | COc1ccc(CNC(=O)c2cnn(-c3ccccc3)c2-n2cccc2)cc1OC | 27.6% | 
46 | Cc1ccccc1Cn1c(SCc2ccc(C(=O)N3CCCCC3)cc2)nc2ccncc21 | inactive: -64.1% | 

18 entries already listed, ordered by molar mass, rising.
Row | SMILES | activity change, positive = activation | Potency
24 | CCCOc1ncnc2c1[nH]c1ccccc12 | inactive: -60.3% | 
30 | Cn1c(CO)cnc1SCc1ccccc1 | 19.8% | 
37 | Cc1nccn1CC(O)COC1CCCCC1 (configuration not stated) | 24.3% | 
35 | Cc1ccccc1-c1cc(-c2ccccc2O)on1 |  | active: 7.08 µM
34 | CCOC(=O)C1CCN(C(=O)Cc2cccs2)CC1 | 26.6% | 
31 | Cc1cc(C)cc(NC(=O)c2cc(=O)c3ccccc3o2)c1 | -29.7% | 
28 | O=C(CC12CC3CC(CC(C3)C1)C2)NCC(=O)N1CCCC1 | 26.3% | 
32 | CC1CC(C)CN(CCCNC(=O)Cn2ncn3cccc3c2=O)C1 (configuration not stated) | 74.1% | 
29 | COCCCN=Cc1c(C)[nH]n(-c2ccc(Br)c(C)c2)c1=O |  | active: 2.82 µM
27 | CC(=O)c1ccc(NC(=O)CSCC(=O)Nc2ccc3ccccc3c2)cc1 | 41.7% | 
45 | COc1ccc(CNC(=O)c2cnn(-c3ccccc3)c2-n2cccc2)cc1OC | 27.6% | 
44 | Cc1ccc(NC(=O)c2nc(S(=O)(=O)Cc3ccc(F)cc3)ncc2Cl)cc1C | -79.4% | 
46 | Cc1ccccc1Cn1c(SCc2ccc(C(=O)N3CCCCC3)cc2)nc2ccncc21 | inactive: -64.1% | 
40 | O=C(c1ccc2nc(N3CCCCC3)sc2c1)N1CCN(Cc2ccc3c(c2)OCO3)CC1 | inactive: -63.5% | 
36 | C=CCNC(=O)c1ccccc1NC(=O)c1ccc(Cl)c(S(=O)(=O)Nc2ccccc2)c1 | -63.4% | 
39 | CCOC(=O)N1CCN(C(=O)C2CCN(c3ncnc4c3sc3cccc(F)c34)CC2)CC1 | -74.7% | 
33 | CCOC(=S)SCC(=O)N1CCc2cc(OC)c(OC)cc2C1C1C(=O)CC(C)(C)CC1=O (configuration not stated) | 20.5% | 
42 | CCOc1cc(C(=O)OCC(=O)c2cc(C)n(CC3CCCO3)c2C)ccc1OCC(=O)N1CCOCC1 (configuration not stated) | 37.4% | 

Later entries.

Row | SMILES | activity change, positive = activation | Potency
47 | CC(C)(C)C1=Nn2c(nnc2-c2ccco2)SC1 | -44.5% | 
48 | Cn1c(CNC(=O)c2ccco2)nnc1SCC(=O)N1c2ccccc2Sc2ccccc21 | 44.9% | 
49 | Cn1c(-c2c(N)n(-c3ccccc3)c3nc4ccccc4nc23)nc2ccccc21 | 6.82% | 
50 | Cc1cccc(N2CCN(C(=O)Cn3c(C)c4cnn(-c5ccccc5)c(=O)c4c3C)CC2)c1C | inactive: -12.3% | 
51 | CC1=NN(c2ccccc2)C(=O)C1C(=O)c1cc([N+](=O)[O-])cc([N+](=O)[O-])c1 (configuration not stated) | inactive: 19.1% | 
52 | CCC(C)NC(=O)CCSc1ccc(C)cc1 (configuration not stated) | -0.625% | 
53 | N#C/C(=C/c1ccc(N2CCCCCC2)o1)c1cccc(F)c1 |  | active: 12.6 µM
54 | Cc1cc(=O)oc(C)c1C(=O)Nc1c(C)n(C)n(-c2ccccc2)c1=O | 38.5% | 
55 | CCOC(=O)c1c(NC(=O)C2CCN(S(=O)(=O)c3cccs3)CC2)sc(C)c1C | 49.1% | 
56 | Cc1cc(C(=O)CSc2nc3ccccc3c(=O)n2C)c(C)n1Cc1ccc2c(c1)OCO2 | inactive: -58.8% | 
57 | COc1ccc(CCNc2oc(Cc3cccc4ccccc34)nc2C#N)cc1OC | inactive: -82.9% | 
58 | O=C(/C=C/c1cccs1)NC(=S)NNC(=O)c1ccccc1O | inactive: -69.9% | 
59 | COc1ccc(C2C=C(c3ccc(F)cc3)NC(=S)N2)cc1OC (configuration not stated) | inactive: -33.5% | 
60 | COc1ccc(-n2c(=O)cc(N3CCN(c4ccccc4F)CC3)[nH]c2=O)cc1 | 34.2% | 
61 | NC(=O)N/N=C/c1cc(Br)ccc1OCC(=O)NCc1ccccc1 | 33% | 
62 | Cc1c(N=C2NC(=O)C(CC(=O)Nc3ccc(Cl)cc3)S2)c(=O)n(-c2ccccc2)n1C (configuration not stated) | 33.1% | 
63 | O=C(NCCCN1CCN(Cc2ccccc2)CC1)C1CCN(c2nnc(-n3cccc3)s2)CC1 | inactive: -58.3% | 
64 | Cc1cccc(NC(=O)c2cccc(NS(=O)(=O)c3ccc(Cl)cc3)c2)c1 | -42.6% | 
65 | O=C(Nc1nccs1)c1cc2c(s1)-c1ccccc1OC2 |  | active: 10 µM
66 | Cc1ccc(-c2nc3ccccc3[nH]2)cc1NC(=O)c1ccco1 | 42.2% | 
67 | Cc1ccc(NC2Nc3cc(C)nn3S2)c(C)c1 (configuration not stated) | 81.3% | 

From PubChem BioAssay AID1458 (National Center for Advancing Translational Sciences (NCATS), 2008)
